Experimental data published in the supplement of paper PMC12823440, “Inhibitors supercharge kinase turnover through native proteolytic circuits” (Nature, 2025).
Where a name gives a salt, the structure may show the parent alone. The list shows a part of the results. The calls rarely recur for the same compound in another form.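 Kinases, fused to nanoluciferase, were expressed in K562 cells; luminescence was measured every 4 h from 2 to 18 h as percent of control (DMSO = 100%, positive control = 0%). A time point is decreased if signal falls significantly (2 sigma). Hits were called by the authors by a rule that is not shown; the count of time points alone does not decide it.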

Protein sequences, listed by entry. Tags and fused reporters are not part of them. Lines headed by an entry give the natural chain unless they say otherwise; changes in a name come on top.
UniProt P49840: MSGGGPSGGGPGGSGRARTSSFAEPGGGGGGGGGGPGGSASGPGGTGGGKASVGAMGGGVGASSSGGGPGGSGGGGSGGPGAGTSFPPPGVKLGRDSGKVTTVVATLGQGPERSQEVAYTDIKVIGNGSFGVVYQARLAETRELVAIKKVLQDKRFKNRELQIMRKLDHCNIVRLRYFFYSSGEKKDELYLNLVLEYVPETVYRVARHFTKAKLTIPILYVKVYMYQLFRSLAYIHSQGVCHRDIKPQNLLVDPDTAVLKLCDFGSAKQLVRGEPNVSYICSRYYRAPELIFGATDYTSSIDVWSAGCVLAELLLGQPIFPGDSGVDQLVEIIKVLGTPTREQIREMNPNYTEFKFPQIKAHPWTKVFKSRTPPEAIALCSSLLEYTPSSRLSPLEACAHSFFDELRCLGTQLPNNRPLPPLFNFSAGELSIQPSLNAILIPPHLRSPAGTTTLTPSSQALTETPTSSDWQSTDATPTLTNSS

Molecular target: GSK3A (UniProt P49840)
Assay: kinase-Nluc reporter destabilization hit call (1 = scored as downregulated) (binary); higher = compound decreases kinase abundance
Settings: K562; 2-18 h

Row | Structure (SMILES) | kinase-Nluc reporter destabilization hit call
1 | O=c1[nH]c2ccccc2n1C1CCN(Cc2ccc(-c3[nH]c4cc5ncnc5cc4nc3-c3ccccc3)cc2)CC1 [AKT inhibitor VIII] (2.5 µM) | inactive: 0
2 | C[C@H]1CC[C@]2(NC1)O[C@H]1C[C@H]3[C@@H]4CC[C@H]5C[C@@H](O[C@@H]6O[C@H](CO)[C@H](O[C@@H]7O[C@H](CO)[C@@H](O)[C@H](O[C@@H]8OC[C@@H](O)[C@H](O)[C@H]8O)[C@H]7O[C@@H]7O[C@H](CO)[C@@H](O)[C@H](O)[C@H]7O)[C@H](O)[C@H]6O)CC[C@]5(C)[C@H]4CC[C@]3(C)[C@H]1[C@@H]2C [Tomatine] (2.5 µM) | inactive: 0
3 | C=C[C@H]1CN2CC[C@]3(C(=O)Nc4ccccc43)[C@@H]2C[C@@H]1/C(=C\OC)C(=O)OC [Corynoxeine] (2 µM) | inactive: 0
4 | C=CC(=O)Nc1ccc2[nH]c(=O)n(C3CCN(Cc4ccc(-c5nc6cc[nH]c(=O)c6cc5-c5ccccc5)cc4)CC3)c2c1 [Borussertib] (10 µM) | inactive: 0
5 | CCOC(=O)c1c(/C(C#N)=C\N)c2ccc(Cl)c(Cl)c2n1C (10 µM) | inactive: 0
6 | CC(=O)OC(C)(C)/C=C/C(=O)[C@](C)(O)[C@H]1[C@H](O)C[C@@]2(C)[C@@H]3CC=C4[C@@H](C=C(O)C(=O)C4(C)C)[C@]3(C)C(=O)C[C@]12C [Cucurbitacin E] (2.5 µM) | inactive: 0
7 | Cc1[nH]ncc1-c1cc2nc([C@H]3CC4CCN3CC4)[nH]c(=O)c2s1 [(R)-Simurosertib] (10 µM) | inactive: 0
8 | C[C@H]1CC[C@]2(NC1)O[C@H]1C[C@H]3[C@@H]4CC[C@H]5C[C@@H](O)CC[C@]5(C)[C@H]4CC[C@]3(C)[C@H]1[C@@H]2C [Tomatidine] (2 µM) | inactive: 0
9 | O=Cc1cn(Cc2ccc(Cl)cc2)c2ccccc12 [Oncrasin-1] (10 µM) | inactive: 0
10 | O=[N+]([O-])/C=C/c1ccc2c(c1)OCO2 (2.5 µM) | inactive: 0
11 | CCN1CCN(C(=O)Cc2ccc(Nc3ncc(F)c(Nc4ccc(C(=O)Nc5ccccc5Cl)cc4)n3)cc2)CC1 (2.5 µM) | inactive: 0
12 | COc1ccc2c(c[n+](C)c3c4cc5c(cc4ccc23)OCO5)c1OC [Chelerythrine (chloride)] (10 µM) | inactive: 0
13 | COC[C@H]1OC(=O)c2coc3c2[C@@]1(C)C1=C(C3=O)[C@@H]2CCC(=O)[C@@]2(C)C[C@H]1OC(C)=O [Wortmannin] (2.5 µM) | inactive: 0
14 | C[C@H]1CC[C@]2(NC1)O[C@H]1C[C@H]3[C@@H]4CC[C@H]5C[C@@H](O)CC[C@]5(C)[C@H]4CC[C@]3(C)[C@H]1[C@@H]2C [Tomatidine (hydrochloride)] (10 µM) | inactive: 0
15 | COc1ccc(/C=C/c2cc(OC)c(OC)c(OC)c2)cc1 (2.5 µM) | inactive: 0
16 | O=c1cc(O)c2ccccc2o1 [4-Hydroxycoumarin] (10 µM) | inactive: 0
17 | C=CC(=O)N[C@H]1C=C(C)c2c(-c3cnc4ccccc4c3)c3c(N)ncnc3n2C1 (10 µM) | inactive: 0
18 | N#CC(C#N)=Cc1ccc([N+](=O)[O-])c(O)c1 (10 µM) | inactive: 0
19 | O=C(O)c1sc2cc(Cl)ccc2c1Cl (10 µM) | inactive: 0
20 | Cc1n[nH]cc1-c1cc2nc([C@@H]3CC4CCN3CC4)[nH]c(=O)c2s1 [Simurosertib] (2.5 µM) | inactive: 0
21 | Cn1cc(C2=C(c3cn(C4CCN(Cc5ccccn5)CC4)c4ccccc34)C(=O)NC2=O)c2ccccc21 [Enzastaurin] (10 µM) | inactive: 0
22 | CN(C)C(=O)c1ccc(Cn2c(C(=O)O)cc3c(Br)cc(Sc4ccc(Cl)c(Cl)c4)cc32)cc1 [Rheb inhibitor NR1] (10 µM) | inactive: 0
23 | C/C(O)=C(\C#N)C(=O)Nc1cc(Br)ccc1Br (10 µM) | inactive: 0
24 | O=C1c2ccccc2C(=O)c2c1cccc2-c1cnn(C2CCNCC2)c1 [PDK4-IN-1 (hydrochloride)] (10 µM) | inactive: 0
25 | COc1ccc(N(C(=O)Oc2c(C)cccc2C)c2ccnc(Nc3ccc(N4CCN(C)CC4)cc3)n2)c(OC)c1 (2.5 µM) | inactive: 0
26 | C[C@@H]1CC[C@H]2[C@@H](C)C(=O)O[C@@H]3O[C@@]4(C)CC[C@@H]1[C@]32OO4 [Artemisinin] (10 µM) | inactive: 0
27 | CC(C)(C)c1cc(C=C(C#N)C#N)cc(Br)c1O (2.5 µM) | inactive: 0
28 | CC1=C[C@]23C(=O)[C@@H](C=C(CO)[C@@H](O)[C@]2(O)[C@H]1O)[C@H]1[C@@H](C[C@H]3C)C1(C)C [Ingenol] (10 µM) | inactive: 0

Molecular target: HER2 (UniProt P04626)
Assay: as above
Settings: K562; 2-18 h

Row | Structure (SMILES) | kinase-Nluc reporter destabilization hit call
29 | O=c1[nH]c2ccccc2n1C1CCN(Cc2ccc(-c3[nH]c4cc5ncnc5cc4nc3-c3ccccc3)cc2)CC1 [AKT inhibitor VIII] (2.5 µM) | inactive: 0
30 | C[C@H]1CC[C@]2(NC1)O[C@H]1C[C@H]3[C@@H]4CC[C@H]5C[C@@H](O[C@@H]6O[C@H](CO)[C@H](O[C@@H]7O[C@H](CO)[C@@H](O)[C@H](O[C@@H]8OC[C@@H](O)[C@H](O)[C@H]8O)[C@H]7O[C@@H]7O[C@H](CO)[C@@H](O)[C@H](O)[C@H]7O)[C@H](O)[C@H]6O)CC[C@]5(C)[C@H]4CC[C@]3(C)[C@H]1[C@@H]2C [Tomatine] (2.5 µM) | inactive: 0
31 | C=C[C@H]1CN2CC[C@]3(C(=O)Nc4ccccc43)[C@@H]2C[C@@H]1/C(=C\OC)C(=O)OC [Corynoxeine] (2 µM) | inactive: 0
32 | C=CC(=O)Nc1ccc2[nH]c(=O)n(C3CCN(Cc4ccc(-c5nc6cc[nH]c(=O)c6cc5-c5ccccc5)cc4)CC3)c2c1 [Borussertib] (10 µM) | inactive: 0
33 | CCOC(=O)c1c(/C(C#N)=C\N)c2ccc(Cl)c(Cl)c2n1C (10 µM) | inactive: 0
34 | CC(=O)OC(C)(C)/C=C/C(=O)[C@](C)(O)[C@H]1[C@H](O)C[C@@]2(C)[C@@H]3CC=C4[C@@H](C=C(O)C(=O)C4(C)C)[C@]3(C)C(=O)C[C@]12C [Cucurbitacin E] (2.5 µM) | inactive: 0
35 | Cc1[nH]ncc1-c1cc2nc([C@H]3CC4CCN3CC4)[nH]c(=O)c2s1 [(R)-Simurosertib] (10 µM) | inactive: 0
36 | C[C@H]1CC[C@]2(NC1)O[C@H]1C[C@H]3[C@@H]4CC[C@H]5C[C@@H](O)CC[C@]5(C)[C@H]4CC[C@]3(C)[C@H]1[C@@H]2C [Tomatidine] (2 µM) | inactive: 0
37 | O=Cc1cn(Cc2ccc(Cl)cc2)c2ccccc12 [Oncrasin-1] (10 µM) | inactive: 0
38 | O=[N+]([O-])/C=C/c1ccc2c(c1)OCO2 (2.5 µM) | inactive: 0
39 | CCN1CCN(C(=O)Cc2ccc(Nc3ncc(F)c(Nc4ccc(C(=O)Nc5ccccc5Cl)cc4)n3)cc2)CC1 (2.5 µM) | inactive: 0
40 | COc1ccc2c(c[n+](C)c3c4cc5c(cc4ccc23)OCO5)c1OC [Chelerythrine (chloride)] (10 µM) | inactive: 0
41 | COC[C@H]1OC(=O)c2coc3c2[C@@]1(C)C1=C(C3=O)[C@@H]2CCC(=O)[C@@]2(C)C[C@H]1OC(C)=O [Wortmannin] (2.5 µM) | inactive: 0
42 | C[C@H]1CC[C@]2(NC1)O[C@H]1C[C@H]3[C@@H]4CC[C@H]5C[C@@H](O)CC[C@]5(C)[C@H]4CC[C@]3(C)[C@H]1[C@@H]2C [Tomatidine (hydrochloride)] (10 µM) | inactive: 0
43 | COc1ccc(/C=C/c2cc(OC)c(OC)c(OC)c2)cc1 (2.5 µM) | inactive: 0
44 | O=c1cc(O)c2ccccc2o1 [4-Hydroxycoumarin] (10 µM) | inactive: 0
45 | C=CC(=O)N[C@H]1C=C(C)c2c(-c3cnc4ccccc4c3)c3c(N)ncnc3n2C1 (10 µM) | inactive: 0
46 | N#CC(C#N)=Cc1ccc([N+](=O)[O-])c(O)c1 (10 µM) | inactive: 0
47 | O=C(O)c1sc2cc(Cl)ccc2c1Cl (10 µM) | inactive: 0
48 | Cc1n[nH]cc1-c1cc2nc([C@@H]3CC4CCN3CC4)[nH]c(=O)c2s1 [Simurosertib] (2.5 µM) | inactive: 0
49 | Cn1cc(C2=C(c3cn(C4CCN(Cc5ccccn5)CC4)c4ccccc34)C(=O)NC2=O)c2ccccc21 [Enzastaurin] (10 µM) | inactive: 0
50 | CN(C)C(=O)c1ccc(Cn2c(C(=O)O)cc3c(Br)cc(Sc4ccc(Cl)c(Cl)c4)cc32)cc1 [Rheb inhibitor NR1] (10 µM) | inactive: 0
51 | C/C(O)=C(\C#N)C(=O)Nc1cc(Br)ccc1Br (10 µM) | inactive: 0
52 | O=C1c2ccccc2C(=O)c2c1cccc2-c1cnn(C2CCNCC2)c1 [PDK4-IN-1 (hydrochloride)] (10 µM) | inactive: 0
53 | COc1ccc(N(C(=O)Oc2c(C)cccc2C)c2ccnc(Nc3ccc(N4CCN(C)CC4)cc3)n2)c(OC)c1 (2.5 µM) | inactive: 0
54 | C[C@@H]1CC[C@H]2[C@@H](C)C(=O)O[C@@H]3O[C@@]4(C)CC[C@@H]1[C@]32OO4 [Artemisinin] (10 µM) | inactive: 0
55 | CC(C)(C)c1cc(C=C(C#N)C#N)cc(Br)c1O (2.5 µM) | inactive: 0
56 | CC1=C[C@]23C(=O)[C@@H](C=C(CO)[C@@H](O)[C@]2(O)[C@H]1O)[C@H]1[C@@H](C[C@H]3C)C1(C)C [Ingenol] (10 µM) | inactive: 0
